Reference: PMC8225859
Results are given in words; binding and its absence hold for the method and conditions named. In cells and extracts the contact can be indirect. A yes stands for co-enrichment or nearness to the bait. Other partners may have been found.

Chains of the proteins cited; added tags and fusions are not shown.
UniProt Q71LX4: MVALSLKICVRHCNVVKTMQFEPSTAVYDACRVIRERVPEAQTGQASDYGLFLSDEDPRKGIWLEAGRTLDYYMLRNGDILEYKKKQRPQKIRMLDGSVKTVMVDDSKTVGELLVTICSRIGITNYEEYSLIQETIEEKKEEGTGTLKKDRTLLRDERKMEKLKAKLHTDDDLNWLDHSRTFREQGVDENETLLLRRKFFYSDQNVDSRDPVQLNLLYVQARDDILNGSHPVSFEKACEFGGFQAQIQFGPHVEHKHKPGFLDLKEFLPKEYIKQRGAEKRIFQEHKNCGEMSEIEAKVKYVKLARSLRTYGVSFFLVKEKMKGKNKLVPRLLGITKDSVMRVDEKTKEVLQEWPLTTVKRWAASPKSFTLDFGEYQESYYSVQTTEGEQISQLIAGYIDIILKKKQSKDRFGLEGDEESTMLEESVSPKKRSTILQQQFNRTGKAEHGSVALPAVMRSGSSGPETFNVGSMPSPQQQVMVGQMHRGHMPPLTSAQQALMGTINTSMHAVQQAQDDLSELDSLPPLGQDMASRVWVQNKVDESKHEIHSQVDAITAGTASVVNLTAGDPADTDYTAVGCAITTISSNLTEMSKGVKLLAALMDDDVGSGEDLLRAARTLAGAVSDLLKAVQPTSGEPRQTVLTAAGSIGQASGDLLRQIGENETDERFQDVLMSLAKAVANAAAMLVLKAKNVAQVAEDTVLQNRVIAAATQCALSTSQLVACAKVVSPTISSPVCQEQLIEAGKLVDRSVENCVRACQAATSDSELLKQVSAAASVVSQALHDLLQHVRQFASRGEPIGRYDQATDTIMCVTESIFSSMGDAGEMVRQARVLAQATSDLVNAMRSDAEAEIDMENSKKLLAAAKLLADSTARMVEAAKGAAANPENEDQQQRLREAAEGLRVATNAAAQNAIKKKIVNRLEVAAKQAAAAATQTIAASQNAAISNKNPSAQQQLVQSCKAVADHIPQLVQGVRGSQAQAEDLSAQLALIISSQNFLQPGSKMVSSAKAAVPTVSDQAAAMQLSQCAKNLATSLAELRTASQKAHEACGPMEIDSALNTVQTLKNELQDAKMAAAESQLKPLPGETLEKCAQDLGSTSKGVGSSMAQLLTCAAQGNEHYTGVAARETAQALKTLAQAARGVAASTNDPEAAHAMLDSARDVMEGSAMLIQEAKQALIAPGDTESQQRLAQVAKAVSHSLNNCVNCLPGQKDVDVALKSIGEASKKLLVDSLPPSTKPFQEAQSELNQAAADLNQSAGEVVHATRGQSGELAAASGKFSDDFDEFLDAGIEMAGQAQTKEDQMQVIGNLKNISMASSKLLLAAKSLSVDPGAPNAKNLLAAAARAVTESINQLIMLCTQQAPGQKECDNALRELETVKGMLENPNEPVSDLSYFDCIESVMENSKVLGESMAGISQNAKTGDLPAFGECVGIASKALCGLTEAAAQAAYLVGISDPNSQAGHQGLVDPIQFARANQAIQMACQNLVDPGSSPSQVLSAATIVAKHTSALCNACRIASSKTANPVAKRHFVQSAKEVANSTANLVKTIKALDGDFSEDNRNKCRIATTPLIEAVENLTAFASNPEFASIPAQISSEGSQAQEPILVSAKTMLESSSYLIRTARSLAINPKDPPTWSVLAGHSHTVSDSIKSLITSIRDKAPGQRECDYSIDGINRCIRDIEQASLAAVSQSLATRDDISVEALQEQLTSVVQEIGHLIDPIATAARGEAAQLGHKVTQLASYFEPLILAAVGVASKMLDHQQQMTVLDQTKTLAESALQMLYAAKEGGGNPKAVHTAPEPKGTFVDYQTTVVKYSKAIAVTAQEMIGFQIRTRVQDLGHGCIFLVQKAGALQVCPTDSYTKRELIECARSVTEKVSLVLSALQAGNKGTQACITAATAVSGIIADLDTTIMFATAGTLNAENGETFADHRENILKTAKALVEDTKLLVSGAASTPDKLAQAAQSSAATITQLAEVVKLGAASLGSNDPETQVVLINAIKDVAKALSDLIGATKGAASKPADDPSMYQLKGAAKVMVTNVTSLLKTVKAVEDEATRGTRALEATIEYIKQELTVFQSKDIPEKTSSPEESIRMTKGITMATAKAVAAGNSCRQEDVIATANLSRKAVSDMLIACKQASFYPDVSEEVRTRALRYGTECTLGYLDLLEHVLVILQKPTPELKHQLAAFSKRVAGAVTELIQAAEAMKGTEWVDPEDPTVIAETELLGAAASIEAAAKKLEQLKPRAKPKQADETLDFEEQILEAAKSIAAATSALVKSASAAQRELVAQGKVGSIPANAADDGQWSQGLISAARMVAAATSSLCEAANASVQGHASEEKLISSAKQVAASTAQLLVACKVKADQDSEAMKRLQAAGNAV
UniProt P26039: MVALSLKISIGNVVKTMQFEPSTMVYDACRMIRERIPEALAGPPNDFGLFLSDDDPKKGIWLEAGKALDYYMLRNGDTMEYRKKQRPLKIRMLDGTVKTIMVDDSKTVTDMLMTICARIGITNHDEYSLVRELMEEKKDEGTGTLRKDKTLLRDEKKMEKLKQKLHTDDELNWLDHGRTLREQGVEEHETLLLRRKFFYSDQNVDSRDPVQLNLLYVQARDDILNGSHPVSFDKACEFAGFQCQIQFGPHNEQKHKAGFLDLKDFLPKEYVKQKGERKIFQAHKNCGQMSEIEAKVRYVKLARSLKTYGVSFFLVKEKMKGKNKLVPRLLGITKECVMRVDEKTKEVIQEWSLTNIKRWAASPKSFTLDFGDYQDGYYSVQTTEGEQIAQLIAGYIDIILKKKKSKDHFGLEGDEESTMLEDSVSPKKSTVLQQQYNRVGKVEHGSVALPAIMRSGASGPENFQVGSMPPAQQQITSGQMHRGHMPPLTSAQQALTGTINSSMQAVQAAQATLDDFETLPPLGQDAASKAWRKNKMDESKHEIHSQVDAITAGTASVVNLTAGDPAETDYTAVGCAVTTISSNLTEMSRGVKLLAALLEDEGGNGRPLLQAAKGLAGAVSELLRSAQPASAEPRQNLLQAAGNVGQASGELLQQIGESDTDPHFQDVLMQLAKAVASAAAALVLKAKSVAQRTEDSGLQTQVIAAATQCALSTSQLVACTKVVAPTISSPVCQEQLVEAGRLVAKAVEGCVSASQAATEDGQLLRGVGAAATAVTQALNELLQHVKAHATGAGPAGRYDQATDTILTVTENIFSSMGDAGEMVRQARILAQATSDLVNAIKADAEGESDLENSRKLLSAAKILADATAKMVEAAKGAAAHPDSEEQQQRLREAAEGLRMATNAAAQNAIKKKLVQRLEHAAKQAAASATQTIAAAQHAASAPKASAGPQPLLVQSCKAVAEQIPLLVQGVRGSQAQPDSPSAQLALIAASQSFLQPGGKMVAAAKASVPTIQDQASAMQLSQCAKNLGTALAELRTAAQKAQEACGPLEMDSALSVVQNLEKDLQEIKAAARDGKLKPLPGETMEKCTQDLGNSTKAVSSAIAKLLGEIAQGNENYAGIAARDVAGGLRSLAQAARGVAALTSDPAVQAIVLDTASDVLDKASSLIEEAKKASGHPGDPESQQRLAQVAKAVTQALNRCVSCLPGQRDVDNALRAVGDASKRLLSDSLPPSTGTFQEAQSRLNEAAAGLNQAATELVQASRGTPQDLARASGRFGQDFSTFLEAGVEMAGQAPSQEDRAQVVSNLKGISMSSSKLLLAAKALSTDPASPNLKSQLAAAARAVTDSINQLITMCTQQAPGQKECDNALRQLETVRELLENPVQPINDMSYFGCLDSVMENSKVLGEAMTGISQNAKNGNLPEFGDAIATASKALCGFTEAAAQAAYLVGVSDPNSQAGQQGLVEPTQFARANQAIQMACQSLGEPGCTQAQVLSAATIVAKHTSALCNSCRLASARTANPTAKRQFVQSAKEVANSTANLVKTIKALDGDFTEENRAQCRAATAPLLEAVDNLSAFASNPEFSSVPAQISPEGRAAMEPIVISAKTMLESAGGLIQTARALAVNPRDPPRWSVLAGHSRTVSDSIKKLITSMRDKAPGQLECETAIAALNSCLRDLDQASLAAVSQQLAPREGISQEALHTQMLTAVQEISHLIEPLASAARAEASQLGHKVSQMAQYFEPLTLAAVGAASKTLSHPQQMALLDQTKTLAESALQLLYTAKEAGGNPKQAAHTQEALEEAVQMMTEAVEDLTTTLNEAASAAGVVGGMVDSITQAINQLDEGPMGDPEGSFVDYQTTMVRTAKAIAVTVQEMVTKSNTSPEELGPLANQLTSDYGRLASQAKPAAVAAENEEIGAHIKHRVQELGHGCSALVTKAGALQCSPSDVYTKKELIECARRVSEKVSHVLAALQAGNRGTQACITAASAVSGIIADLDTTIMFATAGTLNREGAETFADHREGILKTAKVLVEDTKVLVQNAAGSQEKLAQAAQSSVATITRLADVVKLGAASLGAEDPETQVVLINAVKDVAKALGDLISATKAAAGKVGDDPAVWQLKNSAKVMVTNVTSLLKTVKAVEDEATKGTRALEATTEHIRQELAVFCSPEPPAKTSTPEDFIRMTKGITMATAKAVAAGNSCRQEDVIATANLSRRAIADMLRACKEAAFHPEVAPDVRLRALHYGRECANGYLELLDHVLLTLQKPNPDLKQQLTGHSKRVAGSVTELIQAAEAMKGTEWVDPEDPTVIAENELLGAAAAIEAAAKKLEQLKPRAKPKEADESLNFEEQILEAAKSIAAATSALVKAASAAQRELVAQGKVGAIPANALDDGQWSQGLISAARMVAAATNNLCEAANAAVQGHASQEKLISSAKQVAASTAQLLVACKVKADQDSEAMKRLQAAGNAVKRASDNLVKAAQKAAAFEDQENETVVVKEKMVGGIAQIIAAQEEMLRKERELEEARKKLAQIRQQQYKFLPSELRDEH

T1: Apolipoprotein A4 (APOA4) in gonadal fat tissue of WT mice injected with recombinant mouse APOA4 (mouse) (UniProt P06728)
T1 sequence: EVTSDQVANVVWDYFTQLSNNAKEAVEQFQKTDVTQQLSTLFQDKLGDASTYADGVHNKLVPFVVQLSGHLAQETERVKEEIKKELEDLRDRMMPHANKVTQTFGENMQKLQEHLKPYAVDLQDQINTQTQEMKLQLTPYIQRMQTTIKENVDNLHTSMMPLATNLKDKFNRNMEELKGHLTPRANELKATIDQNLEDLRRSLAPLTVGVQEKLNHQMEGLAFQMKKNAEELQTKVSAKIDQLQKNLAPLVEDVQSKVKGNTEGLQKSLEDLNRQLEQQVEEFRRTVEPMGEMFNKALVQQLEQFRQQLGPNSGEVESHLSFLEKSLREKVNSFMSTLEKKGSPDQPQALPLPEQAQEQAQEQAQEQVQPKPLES

B1: Lipin1 (LPIN1) (protein, UniProt Q91ZP3 1-924)
chain: MNYVGQLAGQVFVTVKELYKGLNPATLSGCIDIIVIRQPNGSLQCSPFHVRFGKMGVLRSREKVVDIEINGESVDLHMKLGDNGEAFFVQETDNDQEIIPMYLATSPILSEGAARMESQLKRNSVDRIRCLDPTTAAQGLPPSDTPSTGSLGKKRRKRRRKAQLDNLKRDDNVNSSEDEDMFPIEMSSDEDTAPMDGSRTLPNDVPPFQDDIPKENFPSISTHPQSASYPSSDREWSPSPSSLVDCQRTPPHLAEGVLSSSCPLQSCHFHASESPSGSRPSTPKSDSELVSKSADRLTPKNNLEMLWLWGELPQAAKSSSPHKMKESSPLGSRKTPDKMNFQAIHSESSDTFSDQSPTMARGLLIHQSKAQTEMQFVNEEDLESLGAAAPPSPVAEELKAPYPNTAQSSSKTDSPSRKKDKRSRHLGADGVYLDDLTDMDPEVAALYFPKNGDPGGLPKQASDNGARSANQSPQSVGGSGIDSGVESTSDSLRDLPSIAISLCGGLSDHREITKDAFLEQAVSYQQFADNPAIIDDPNLVVKVGNKYYNWTTAAPLLLAMQAFQKPLPKATVESIMRDKMPKKGGRWWFSWRGRNATIKEESKPEQCLTGKGHNTGEQPAQLGLATRIKHESSSSDEEHAAAKPSGSSHLSLLSNVSYKKTLRLTSEQLKSLKLKNGPNDVVFSVTTQYQGTCRCEGTIYLWNWDDKVIISDIDGTITRSDTLGHILPTLGKDWTHQGIAKLYHKVSQNGYKFLYCSARAIGMADMTRGYLHWVNERGTVLPQGPLLLSPSSLFSALHREVIEKKPEKFKVQCLTDIKNLFFPNTEPFYAAFGNRPADVYSYKQVGVSLNRIFTVNPKGELVQEHAKTNISSYVRLCEVVDHVFPLLKRSHSCDFPCSDTFSNFTFWREPLPPFENQDMHSASA
B2: Proline-serine-threonine phosphatase interacting protein 2 (PSTPIP2) (protein, UniProt Q99M15 1-334)
chain: MTGSLFKGNFWSTDILSTIGYDSIIQHLNNGRKNCKEFEDFLKERASIEEKYGKDLLNLSRKKPCGQSEINTLKRALEVFKQQVDNVAQCHIQLAQTLREEARKMEEFREKQKLQRKKTETIMDAAHKQRNAQFKKAMDAKKNYEQKCRDKDEAEQAVHRSANVANQRQQEKLFVKLATSKTAVEDSDKAYMLHINMLEKVREDWQSEHIKACEVFEAQECERINFFRNALWLHLNQLSQQCVANDEMYEQVRKSLETCSIEKDIQYFVNQRKTGQTPPAPIMYENFYSPQRNAAPPGKTTGPNPARRGPLPVPKRIPDDPDYSVVEDYSLLYQ
B3: Malonyl-CoA decarboxylase (MLYCD) (enzyme, UniProt Q99J39 39-492)
chain: MDELLRRAVPPTPAYELREKTPAPAEGQCADFVSFYGGLAEASQRAELLGRLAQGFGVDHGQVAEQSAGVLQLRQQAREAAVLLQAEDRLRYALVPRYRGLFHHISKLDGGVRFLVQLRADLLEAQALKLVEGPHVREMNGVLKSMLSEWFSSGFLNLERVTWHSPCEVLQKISECEAVHPVKNWMDMKRRVGPYRRCYFFSHCSTPGEPLVVLHVALTGDISNNIQGIVKECPPTETEERNRIAAAIFYSISLTQQGLQGVELGTFLIKRVVKELQKEFPQLGAFSSLSPIPGFTKWLLGLLNVQGKEHGRNELFTDSECQEISAVTGNPVHESLKGFLSSGEWVKSEKLTQALQGPLMRLCAWYLYGEKHRGYALNPVANFHLQNGAVMWRINWMADSSLKGLTSSCGLMVNYRYYLEETGPNSISYLGSKNIKASEQILSLVAQFQNNSKL
B4: Glyceronephosphate O-acyltransferase (GNPAT) (enzyme, UniProt P98192 1-678)
chain: MDVPSSSSSRFSVGSASPSSVLLYAKDLKKWDEFEDLLEERRHISDFKFAMKCYTPPLYRGITPCKPGDIKSIVLSSEEINYVIKQLSRESLTGVDVLREEASEILEEMSHKLRIGAIRFFAFVLSKIFKQIFSKVCVNEEGIQKLQRAVQEHPVVLLPSHRSYIDFLMLSFILYSYDLPVPVIAAGMDFLGMRVVSELLRMSGAFFMRRTFGGNKLYWAVFSEYVKTMLRCGYAPVEFFLEGTRSRAAKTLTPKFGLLNIVMEPFFKREVFDTYFVPISISYDKILEESLYAYEILGVPKPKESTTGLLKARRILSENFGSIHVYFGDPVSLRSLAAGRLNRNTYNLVPRCIPQKQPEDVQAFVTEVAYKMQLLQIENLALSPWLLVVTILLQNQLSMDFDALVEKTLWLKGVTQVFGGFLLWPDNKLPEEVVQSSILLHSNLASLVKDQVVLKMNSGSSQVVNGLVPEHIALLMCSAYRNQLLNIFARPSLVALALHMTPGLRKEDVFSCFSFLRNVFSDEFIFLPGNTLRDFEEGCYLLCKAEAMQMAGKDIILTDKGTAVLQFLTSLFKPFVESYQLLCRYLLHEEDYFGEKEYLVAARKFTRQLLDQGSSQCYDALSSELQKNALAAFVRLGVVEKKKVDSKYVYYVNGPATSKLEEMLGCKKPIGKPATAKL

Biological target: T1, Apolipoprotein A4 (APOA4) in gonadal fat tissue of WT mice injected with recombinant mouse APOA4 (mouse)
Assay: affinity purification with mass spectrometry; goat anti-mouse APOA4 (goat IgG isotype control in parallel) conjugated to agarose beads; 10 mg pooled gonadal fat tissue lysate of male and female WT mice fasted 5 h and injected i.p. with r-m-APOA4 (2.5 ug/g) 2 h before; overnight at 4 °C; eluate resolved by SDS-PAGE, in-gel trypsin digestion, LC-MS/MS

binding, binds:
Talin 2 (TLN2) (from UniProt Q71LX4 1-2375)
Talin 1 (TLN1) (from UniProt P26039 1-2541)
Low-density lipoprotein receptor-related protein 1 (LRP1) (mouse (endogenous in gonadal fat tissue))

Biological target: T1, Apolipoprotein A4 (APOA4) in gonadal fat tissue of WT mice injected with recombinant mouse APOA4 (mouse)
Assay: as above
Remark: another data set of the same source

binding, binds:
B1
B2
B3
B4
